Publication PMC10163288
The list shows a part of the results.

B1: il10ra_site1_sap_36_mot_HHH_b1_05512_000000094_0001_1_18_H_._HHH_b1_00459_af2_0001_0000200011_0000001_0_0001 (protein)
chain: SSSSDEAREEVERLLEEAEEALEEGDEELVIRLLFEAVRLAMHGKDAELLRAVWELFESLSSSSS
B2: il10ra_site1_sap_21_mot_HHH_b2_04013_af2_000000040_0001_22_39_H_._HHH_b2_02292_af2_0001_0000200014_0000001_0_0001_af2pred_0001 (protein)
chain: SSSSDDEFFKRVAELLRRVNELARKGNPEEAERLLEEAKELAEEANDPYLKLSIEFVEERNSSSS
B3: il10ra_site1_sap_21_mot_HHH_b1_07100_000000193_0001_1_18_H_._HHH_b2_04755_0001_0000100001_0000003_0_0001 (protein)
chain: SSSSDEDEERVERLLEEAEELAEEGNPREAAKVLLEALQIAIQSNNPELLRRVWEVLQRLGSSSS
B4: il10ra_site1_normal_mot_HHH_b1_04940_000000219_0001_1_18_H_._HHH_b1_07862_0001_0000100003_0000001_0_af2pred_0001 (protein)
chain: SSSSSSAEEAARFFLKAAKQLEDPELVKRALRFAAWLAKSRNDEELLKEIEELLKEVEEGSSSSS
B5: il10ra_site1_sap_29_mot_HHH_b2_00345_af2_000000013_0001_42_56_H_._HHH_b1_06101_af2_0001_0000200013_0000001_1_0001 (protein)
chain: SSSSDEEEEIRELFEEAKELLEEGDEEEALRVLIELNRLAFRTGDPEAHRLVIELAELLKGSSSS
B6: il10ra_site1_normal_mot_2c1a291787c6f40772924d4e9068d803_0001_af2_000000222_0001_34_48_H_._HHH_b2_03388_0001_0000500030_0000001_0 (protein)
chain: SSSSDEYEERVFQLLIEAYRLAQRGNPEEAEKVLEEAEKILEENNDEANLRAVRRLLELLGSSSS
B7: il10ra_site1_normal_mot_HHH_b1_05860_000000142_0001_1_19_H_._HHH_b2_03504_0001_0000100005_0000001_0_af2pred_0001 (protein)
chain: SSSSDVEERVQELIEEAEELLEEGDLERVFELLEEILELAFKSNNPEIEKEARRLSRLLAGSSSS
B8: il10ra_site1_sap_16_mot_HHH_b2_02337_000000026_0001_38_52_H_._HHH_b2_04339_af2_0001_0000100005_0000001_0_0001 (protein)
chain: SSSSDEEEVEELLREARELAERGNHEEAFRLLFEALRIVVQLGNAELIQLIWEAIHFVANRSSSS
B9: il10ra_site1_sap_12_mot_HHH_b2_03328_af2_000000127_0001_1_19_H_._HHH_b1_02894_0001_0000200006_0000001_0_0001 (protein)
chain: SSSSSSSEVEELLREAEELLERGNPEEALRVIMEALRLALREGDEELFQELWELAKRVASSSSSS
B10: il10ra_site1_sap_21_mot_HHH_b1_06379_000000121_0001_1_16_H_._HHH_b1_00711_0001_0000100006_0000001_0_0001 (protein)
chain: SSSSDLEEAIRLVQAVVELDHEGNVEEARELVEEAEKVVEEAGNDVLRVQLEYLKRLLERHSSSS
B11: il10ra_site1_sap_11_mot_HHH_b1_06363_000000103_0001_21_38_H_._HHH_b2_01051_af2_0001_0000200005_0000001_0_0001 (protein)
chain: SSSSTEAQEVYELSREAAELDREGDPEEAEEVLQEALELARELGDWAARKVAEYMLRTINSSSSS
B12: il10ra_site1_sap_20_mot_HHH_b1_05088_af2_000000046_0001_20_36_H_._HHH_b1_05011_0001_0000100005_0000002_0_0001_af2pred_0001 (protein)
chain: SSSSDEEEVEKQVRELLEEAKRIPDPEERAYVLVRAFALANRLGDEELRKLVEEVAQELLSSSSS
B13: il10ra_site1_sap_23_mot_HHH_b1_03754_af2_000000016_0001_40_56_H_._HHH_b1_06703_0001_0000100002_0000001_0_0001 (protein)
chain: SSSSDEDQRALELVLEAMELALRGDPEEAEEVLKEALQVAEEGNNERLAEQIEILLEAQKSSSSS
B14: il10ra_site1_normal_mot_HHH_b2_06864_af2_000000190_0001_1_20_H_._HHH_b2_03449_0001_0000200027_0000002_0 (protein)
chain: SSSSSSDEEEVEELLEEAKQIEDPQEVFKLLRKAIEIAAEANDPELAELVMKVIRELFSSSSSSS
B15: il10ra_site1_normal_mot_a6c796b944619e241e020fd597ddb6da_0001_af2_000000092_0001_15_31_H_._HHH_b2_01778_af2_0001_0000200009_0000001_0 (protein)
chain: SSSSSSDDDEQRVRALIFFAKLSHNREAARISLEIAKEIAEEINNEELQKEIEELEKELSSSSSS
B16: il10ra_site1_normal_mot_HHH_b1_05757_000000171_0001_42_57_H_._HHH_b1_01891_af2_0001_0000100002_0000001_0_af2pred_dldesign_0_af2pred (protein)
chain: SSSSSPELEALAARIEELLAEGKYEEAFKLLKELAEKASEEKDLEAQARARRLARRLVESSSSSS
B17: il10ra_site1_sap_22_mot_HHH_b2_00099_af2_000000010_0001_1_19_H_._HHH_b1_00236_0001_0000500011_0000001_0_0001 (protein)
chain: SSSSDEEENEELLEQLERLIEEGDRERALELAQEAEEILVQNSDPEALHRLWRLVKEIAKLSSSS
B18: il10ra_site1_normal_mot_HHH_b1_02062_000000185_0001_1_20_H_._HHH_b1_03322_0001_0000300025_0000001_0 (protein)
chain: SSSSDIERRIYELSREAAELDSQGDPERAEEVLEEAKELAEEINNLNLLFQVRFLERVLHSSSSS
B19: il10ra_site1_normal_mot_HHH_b2_05797_000000294_0001_1_19_H_._HHH_b2_04237_0001_0000500046_0000002_0 (protein)
chain: SSSSDLEEYVRAARRFAEALLEAGDPEAARRILRLLLEVVERLGNEELARELEKLLEEVEGSSSS
B20: il10ra_site1_normal_mot_8756ee2cf497b5429c717dfc0c0bcfd6_0001_000000186_0001_1_13_H_._HHH_b1_07180_0001_0000100004_0000001_0_af2pred_0001 (protein)
chain: SSSSSEVEELYRLLRRIAELLHNGNEEEARKLIEEAEEVAQEAGNLVVEVILEFLLKNLDSSSSS
B21: il10ra_site1_normal_mot_HHH_b2_06795_000000133_0001_42_56_H_._HHH_b1_02165_0001_0000400030_0000001_0 (protein)
chain: SSSSDELEERVRQALRFVRALLEAGNPEAAELLLRQLEEVVKRHNNEELLELVRELLEEVRSSSS
B22: il10ra_site1_normal_mot_HHH_b2_00612_000000251_0001_1_14_H_._HHH_b1_06195_0001_0000100001_0000003_0 (protein)
chain: SSSSDLSEEVRRVLEEAAELQWEGNPEEAERLLEELEELIREKGNQLALWSVEYLLRQIEKSSSS
B23: il10ra_site1_normal_mot_HHH_b1_02997_000000220_0001_39_52_H_._HHH_b1_07718_af2_0001_0000200010_0000001_0_af2pred_0001 (protein)
chain: SSSSSHELRERVQELARRAAELHAEGDPEEARELLEEAEELAEEGNNLVLLVIVRYILELASSSS
B24: il10ra_site1_sap_17_mot_HHH_b2_05084_af2_000000250_0001_43_57_H_._HHH_b1_08533_0001_0000700070_0000001_0_0001_af2pred_0001 (protein)
chain: SSSSDAEHLLELAEIALELLLKAGDEEKVEEVLELVERLARALNDEEVLERVKELEEELHSSSSS
B25: il10ra_site1_sap_16_mot_HHH_b2_01447_af2_000000258_0001_1_20_H_._HHH_b1_00719_af2_0001_0000200004_0000002_0_0001_af2pred_0001 (protein)
chain: DEEEEVARIILELLKQGIPPEEAIIIVAQEIAELKNPELSHLISRIYALLNRNPEEARELLEELH
B26: il10ra_site1_normal_mot_HHH_b1_02062_000000185_0001_1_20_H_._HHH_b1_08089_0001_0000100003_0000001_0_af2pred_0001 (protein)
chain: SSSSDVEERVEELFEEVEELLRQGDVEEAFKVSREMIELASENQDDEAAELAREASRLFARSSSS
B27: il10ra_site1_normal_mot_HHH_b1_01821_000000158_0001_23_39_H_._HHH_b2_04755_0001_0000100013_0000001_0 (protein)
chain: SSSSDLEEEVERLLEEAEKLYEEGNPEEVLELLLEALQLALENSNKELLQLVWRVFKELRGSSSS
B28: il10ra_site1_sap_27_mot_104c758fc23488854646035ccb2100c6_0001_000000282_0001_15_29_H_._5a9d7fc92c57439179869c3e1d567c11_0001_0001_0000100005_0000001_0_0001_af2p … (protein)
chain: SSSSSPLEKKLEATTKYLKFCLSHNDLEGIKSGLIALKQLGDESGNEEAKKVAAEVEEKLKSSSS
B29: il10ra_site1_sap_24_mot_HHH_b2_00475_000000107_0001_44_57_H_._HHH_b1_04576_0001_0000500027_0000001_0_0001 (protein)
chain: DLLELAFELQRRQGTPPEDVIRALLYLAHAANDPERVELLEEVLKLLEDGDPERAEELLKEASKR
B30: il10ra_site1_normal_mot_HHH_b1_07679_000000198_0001_1_20_H_._HHH_b2_07151_0001_0000400029_0000002_0_af2pred_0001 (protein)
chain: SSSSSSDELFERVAELLREATQIEDEEERRQVLEEAKELAEEGNNEALKISIEFIEEAHSSSSSS
B31: il10ra_site1_normal_mot_HHH_b2_03183_af2_000000055_0001_40_56_H_._HHH_b1_07720_af2_0001_0000100002_0000001_0 (protein)
chain: SSSSDREELLRAVLRLLEQALEIGDEHAFRRLLEAAKRAAELNNDEEILQLLEELEKEVNSSSSS
B32: il10ra_site1_sap_11_mot_HHH_b2_05111_af2_000000002_0001_42_56_H_._HHH_b1_02798_af2_0001_0000600018_0000001_0_0001 (protein)
chain: SSSSDTQEIYELLEELVRALHNGDEELFEEIFERVERLIEEAGSRNLRMVLEFLERLFRSLSSSS
B33: il10ra_site1_sap_16_mot_HHH_b2_04680_000000215_0001_1_16_H_._HHH_b1_08024_0001_0000300027_0000001_0_0001_af2pred_0001 (protein)
chain: SSSSSSDLSQRIVELIREAMQIEDPEEAEEVLEEAQELAEEAGSPLFRRAVEFALRRLSSSSSSS
B34: il10ra_site1_normal_mot_HHH_b1_00999_000000080_0001_41_55_H_._HHH_b2_05299_af2_0001_0000700032_0000001_0 (protein)
chain: SSSSSDEEKRERAEELIEEAEEIEDPEELIRVLTEALRLLYEVNDKELLQELWELIKRLGSSSSS
B35: il10ra_site1_sap_27_mot_HHH_b1_01011_000000096_0001_1_19_H_._HHH_b2_07786_0001_0000100003_0000001_0_0001_af2pred_0001 (protein)
chain: SSSSNDQELAELALMFVRFLEEEGDEEALRRMLKAARQLAKQANDEEILRELEEILEELESSSSS
B36: il10ra_site1_normal_mot_HHH_b1_00915_000000117_0001_1_19_H_._HHH_b2_00147_af2_0001_0000100003_0000002_1 (protein)
chain: SSSSSTLEFAVRFALRVVEELLELGDPEKARAILEALRRHLEEAGDEELLRIVEELLEEISSSSS
B37: il10ra_site1_normal_mot_HHH_b1_02397_af2_000000085_0001_39_57_H_._HHH_b2_07136_af2_0001_0000100007_0000001_0_af2pred_0001 (protein)
chain: SSSSDEEEEEVEKLIEELKRAIENNDPELLARLARRALKLALELGDEELLQEIRKLFRRALSSSS

What follows are binders tested against il10ra, Q13651 (assay: yeast display titration).

Apparent Kd, inactive:
B1 no binding seen
B2 no binding seen
B3 no binding seen
B4 no binding seen
B5 no binding seen
B6 no binding seen
B7 no binding seen
B8 no binding seen
B9 no binding seen
B10 no binding seen
B11 no binding seen
B12 no binding seen
B13 no binding seen
B14 no binding seen
B15 no binding seen
B16 no binding seen
B17 no binding seen
B18 no binding seen
B19 no binding seen
B20 no binding seen
B21 no binding seen
B22 no binding seen
B23 no binding seen
B24 no binding seen
B25 no binding seen
B26 no binding seen
B27 no binding seen
B28 no binding seen
B29 no binding seen
B30 no binding seen
B31 no binding seen
B32 no binding seen
B33 no binding seen
B34 no binding seen
B35 no binding seen
B36 no binding seen
B37 no binding seen

3 successive entries already listed, quoted:
Apparent Kd, inactive:
B27 no binding seen
B28 no binding seen
B29 no binding seen
